Taken from: PubChem BioAssay AID504808 (Drosophila RNAi Screening Center, 2011)
In all, the deposit lists about 21,000 reagents; below is an unselected part of those with a known target gene and a result. Over the whole deposit, 18 (0.084%) were called active. 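Raw counts without plate normalisation, one of two replicates; the ratio scores behind the calls were not deposited.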 Reagents against one gene are numbered here. Not stated in the record: the amount of reagent, the time to read-out.

Purpose: 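Fly genes required to hold E2F transcription in check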 (primary screen)
System: Drosophila S2 cells
Reagents: long dsRNA against Drosophila genes
Measurement: 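Dual luciferase plate measurements; E2F-specific signal taken as firefly over Renilla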
Direction: E2F firefly: higher = more E2F reporter activity; Renilla normaliser: higher = more normaliser reporter signal
Active means: 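a knock-down counted as active when the firefly/Renilla E2F signal rose above 50%, a threshold chosen arbitrarily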

After knock-down of Pgm1, the screen gave E2F firefly, rep 1 = 66616; Renilla normaliser, rep 1 = 2915; inactive.
comm3 #1 gave E2F firefly, rep 1 = 1.72e5; Renilla normaliser, rep 1 = 6443; inactive.
comm3 #2 gave E2F firefly, rep 1 = 1.47e5; Renilla normaliser, rep 1 = 7326; inactive.
Against comm3 #3, the values are E2F firefly, rep 1 = 1.84e5; Renilla normaliser, rep 1 = 8502; inactive.
After knock-down of CG12325, the record shows E2F firefly, rep 1 = 2898; Renilla normaliser, rep 1 = 174; inactive.
euc gave E2F firefly, rep 1 = 94742; Renilla normaliser, rep 1 = 5415; inactive.
CG10674 gave E2F firefly, rep 1 = 93095; Renilla normaliser, rep 1 = 3987; inactive.
For M7BP, the values are E2F firefly, rep 1 = 3248; Renilla normaliser, rep 1 = 171; inactive.
lic showed E2F firefly, rep 1 = 8092; Renilla normaliser, rep 1 = 892; inactive.
After knock-down of CG12531, the screen gave E2F firefly, rep 1 = 1.38e5; Renilla normaliser, rep 1 = 6732; inactive.
CG3085 gave E2F firefly, rep 1 = 74522; Renilla normaliser, rep 1 = 3191; inactive.

3 entries from above, sorted by “E2F firefly, rep 1”, ascending:
M7BP | E2F firefly, rep 1 = 3248; Renilla normaliser, rep 1 = 171; activity call = inactive
CG10674 | E2F firefly, rep 1 = 93095; Renilla normaliser, rep 1 = 3987; activity call = inactive
euc | E2F firefly, rep 1 = 94742; Renilla normaliser, rep 1 = 5415; activity call = inactive

Next entries follow:
Against CG3740, the values are E2F firefly, rep 1 = 1.16e5; Renilla normaliser, rep 1 = 5995; inactive.
CG13813 scored E2F firefly, rep 1 = 1.17e5; Renilla normaliser, rep 1 = 5246; inactive.
Against Pcd the deposit lists E2F firefly, rep 1 = 1.24e5; Renilla normaliser, rep 1 = 6057; inactive.
Silencing of Ir64a #1 came out at: E2F firefly, rep 1 = 92835; Renilla normaliser, rep 1 = 3869; inactive.
After knock-down of Ir64a #2 the results were E2F firefly, rep 1 = 99400; Renilla normaliser, rep 1 = 3838; inactive.
For ND-B22, the values are E2F firefly, rep 1 = 1.04e5; Renilla normaliser, rep 1 = 4743; inactive.
IntS14 showed E2F firefly, rep 1 = 88388; Renilla normaliser, rep 1 = 3730; inactive.
sc showed E2F firefly, rep 1 = 49227; Renilla normaliser, rep 1 = 3760; inactive.
